The other results are listed elsewhere or left out.
These sequences were tested against OsWRKY34 (Oryza sativa, UniProt Q0JBA9 1-250) (assay: protein-binding microarray (RPBM); PBS, 2% BSA, 51.3 ng/ul salmon testes DNA, 50 uM zinc acetate, 200 nM TF, 25 C, 1 h; high values mean tight binding). Conditions: protein: recombinant; tags: N-terminal polyhistidine and DsRed monomer fusion (pET32a); label: CyDye5-dUTP incorporated in the synthesized complementary strand; 3' TTTTT single-stranded linker to array surface; dsDNA, one strand shown.
Procedure, shortened: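 Binding signal here means per-feature fluorescence intensity in arbitrary units. The values were read on an Axon 4000B scanner after a custom Agilent array, double-stranded by primer extension with Cy5-dUTP, was incubated with 200 nM protein at 25 °C for 1 h in PBS with 2% BSA, salmon testes DNA and 50 µM zinc acetate, then washed. The proteins were transcription factors with an N-terminal polyhistidine tag and DsRed, expressed in E. coli BL21-CodonPlus and purified on Ni–NTA.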

Chains of the proteins cited; added tags and fusions are not shown.
UniProt Q0JBA9, entry or part of it: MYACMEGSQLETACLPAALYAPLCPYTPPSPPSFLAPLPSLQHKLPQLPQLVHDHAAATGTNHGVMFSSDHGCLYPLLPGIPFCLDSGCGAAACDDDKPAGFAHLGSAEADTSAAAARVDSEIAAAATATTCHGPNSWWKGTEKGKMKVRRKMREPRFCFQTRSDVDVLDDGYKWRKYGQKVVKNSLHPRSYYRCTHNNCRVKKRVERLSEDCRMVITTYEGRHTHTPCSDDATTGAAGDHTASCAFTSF

Point of comparison: “AACTCGACTTGACCATCTGGCCCCACCTGTCAGCCTCTCACGGAGTCACCTAGTGCAG”, binding signal 8140 fluorescence intensity (a.u.). Against it:
- TCCAATCTGTGCTGCCTTTATATTAGTTCCACCAAGAAGACGGAGTCACCTAGTGCAG — higher, 9380 fluorescence intensity (a.u.)
- AATCCGCCACTTGCATGTGGGCCCCGTCATCTGACCCTTCCGGAGTCACCTAGTGCAG — higher, 8260 fluorescence intensity (a.u.)
- TTCTATTTACCCCTGTTCAAAACCTACTGTAGAAACAAATCGGAGTCACCTAGTGCAG — higher, 8600 fluorescence intensity (a.u.)
- GCCCCTGGAAGATGAGCGGCTGCTGGTCTGGCGGAAGCCCCGGAGTCACCTAGTGCAG — higher, 9170 fluorescence intensity (a.u.)
- CTGCTTGTATTTTCAGTACACTGTTTTTTCGTCAGAAGCACGGAGTCACCTAGTGCAG — higher, 8230 fluorescence intensity (a.u.)
- TCTCTCTCTTCAGTGCCATCACCATCTCTCTCTCTCTCTCCGGAGTCACCTAGTGCAG — higher, 8210 fluorescence intensity (a.u.)
- GTGATGGAGATGTAGCTAGTCATGGGCTTCTTCGCCACCGCGGAGTCACCTAGTGCAG — lower, 8080 fluorescence intensity (a.u.)
- CTGTATTTTTTCTGTGTTTTGTAATCCTCTGTTTTACACTCGGAGTCACCTAGTGCAG — higher, 11300 fluorescence intensity (a.u.)
- TTTCTACACACAAACTTCCAACTTTTCCGTCACATCGTTTCGGAGTCACCTAGTGCAG — higher, 10100 fluorescence intensity (a.u.)
- TGGGTCGTGGCGTGGGTCCATATTGCGCGTTAGATTCTGGCGGAGTCACCTAGTGCAG — higher, 8280 fluorescence intensity (a.u.)
- CCACACGCAGCCCGAGCCGCCGCCGCTTTTTCCGCCTCTTCGGAGTCACCTAGTGCAG — higher, 10600 fluorescence intensity (a.u.)
- TCCAACACACTAGTCTGGCAACCGGCTCTCTAATCCTTAACGGAGTCACCTAGTGCAG — higher, 8190 fluorescence intensity (a.u.)
- CTCACCCATTCTAATTATTTAATATTAGGTCATTCTCCAACGGAGTCACCTAGTGCAG — higher, 8390 fluorescence intensity (a.u.)
- CCTTACTTCTAAGCAAAACCTAATTTCCTTTGCTTGTTGCCGGAGTCACCTAGTGCAG — lower, 8110 fluorescence intensity (a.u.)
- CTCGCGACCACTTCACTGGACTACACTACCACCTCTCTCTCGGAGTCACCTAGTGCAG — higher, 10700 fluorescence intensity (a.u.)
- ATCGAGTCGTGGGTGTGCATGGTGTGCGTGGCGTCAGTTCCGGAGTCACCTAGTGCAG — higher, 8230 fluorescence intensity (a.u.)
- CTAATCTTTCATCCACTAACGCTGGCTGCCGCTAATCTACCGGAGTCACCTAGTGCAG — higher, 8300 fluorescence intensity (a.u.)
- TGTGTGAGCTTTAGGGTGTGTTTGGATGGAGGGTTTTGGGCGGAGTCACCTAGTGCAG — higher, 10100 fluorescence intensity (a.u.)
- ACTCCCTCTATTTCAGGTTATACGATGTTTTAACTTTGGTCGGAGTCACCTAGTGCAG — higher, 9630 fluorescence intensity (a.u.)
- CGCCGCAATTCCGCAAACACTTGCACCGTCGTTTATCCCTCGGAGTCACCTAGTGCAG — lower, 8060 fluorescence intensity (a.u.)
- TTTTTCCTGTTATCATAGAGGTGTTGCATATACTTGTTCCCGGAGTCACCTAGTGCAG — higher, 8180 fluorescence intensity (a.u.)
- GCCGGCCTGCCGCTGGCGGTCTGGCGCTGGGGAGGGGATGCGGAGTCACCTAGTGCAG — higher, 9940 fluorescence intensity (a.u.)
- TTTTTCTTTTCTTTTTTGCTTTTGAATTGTGGGGTTGTAACGGAGTCACCTAGTGCAG — higher, 8790 fluorescence intensity (a.u.)
- TCTGGACCGCACCTTCCAAATCCACGGCTAAAATCTCCATCGGAGTCACCTAGTGCAG — higher, 8450 fluorescence intensity (a.u.)
- CTCGCCGCGCGTCGCCTGCCTCGCTCCCACCGTTTCCGTCCGGAGTCACCTAGTGCAG — higher, 8670 fluorescence intensity (a.u.)
- TACATTGTTAGTACTGTTTGGTGTAACTATTTTTTTATAACGGAGTCACCTAGTGCAG — higher, 8180 fluorescence intensity (a.u.)
- GACCAACCCCAAAACATGCGCCATTTCCTTATGTTATCCTCGGAGTCACCTAGTGCAG — higher, 11400 fluorescence intensity (a.u.)
- ACGCCGCTCCACACCTCTCGTTTTCACTGCTTGCTGCGAGCGGAGTCACCTAGTGCAG — higher, 12400 fluorescence intensity (a.u.)
- CCGCCTCCTCCCACGCGCCCATCGCCCACCACCTCCTCACCGGAGTCACCTAGTGCAG — higher, 9160 fluorescence intensity (a.u.)
- TTGCATCTCTCTCTCTCTCTCTCTCTCTCTCTCTCTCTCTCGGAGTCACCTAGTGCAG — higher, 10900 fluorescence intensity (a.u.)
- ATCCGTCCATACACCGTCACAACAGTTGAATATATACTTCCGGAGTCACCTAGTGCAG — higher, 8300 fluorescence intensity (a.u.)
- CATCGTATCGATCCCCATTCGCGCCGTCCTCTTCTTCTTCCGGAGTCACCTAGTGCAG — higher, 10200 fluorescence intensity (a.u.)
- CCCATGCTGCATTATTTGCGACTCCCATCCCGTCCTCCACCGGAGTCACCTAGTGCAG — higher, 9240 fluorescence intensity (a.u.)
- CTTCACCTCCTCATACCTCGAGCAAGCCATTGATACTGCCCGGAGTCACCTAGTGCAG — higher, 8240 fluorescence intensity (a.u.)
- TTAAATACTCTCTCCGTCCCAATCACCGAGCCTATATAATCGGAGTCACCTAGTGCAG — higher, 8490 fluorescence intensity (a.u.)
- ACACAACTCTCTCTCTCTCTCTCTCTCTCTCTCTCTCGTCCGGAGTCACCTAGTGCAG — higher, 8230 fluorescence intensity (a.u.)
- AAACGCAACCCATTTTTCATTCATTTCCCTTTTTTATTAGCGGAGTCACCTAGTGCAG — higher, 8720 fluorescence intensity (a.u.)
- AAACCCTATTGCTCCCAGCGTCTTTCCTATTTCGGTAATTCGGAGTCACCTAGTGCAG — higher, 11500 fluorescence intensity (a.u.)
- ACGACCTCGATCGTCCCGTGTCGTCCAACGCAACGCATGCCGGAGTCACCTAGTGCAG — higher, 8870 fluorescence intensity (a.u.)
- AAACTCATTTAATCGTGTCTCTATCCCTCTGTCTCGTTCGCGGAGTCACCTAGTGCAG — higher, 9860 fluorescence intensity (a.u.)
- ACACTCCACCGTAGCTCGGTCATCCTTAGTCGCACACCGACGGAGTCACCTAGTGCAG — higher, 10600 fluorescence intensity (a.u.)

— PMC7819943, “Rice protein-binding microarrays: a tool to detect cis-acting elements near promoter regions in rice”
